PubChem BioAssay AID743121 | NCATS, 2013
Test: 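Partners whose loss is lethal together with topoisomerase I blockade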 (primary screen). Cell system: MDA-MB-231 cells, a human breast cancer line. Reagent: single siRNA against human genes, 20 nM siRNA (0.8 pmol per well). Time to read-out: 120 h (drug added 48 h after transfection, read 72 h later). Conditions: camptothecin 20 nM (about EC30) for 72 h; vehicle 0.1% DMSO in parallel plates. Measurement: 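Cell viability by ATP luminescence (CellTiter-Glo) as % of non-targeting siRNA wells, and the log2 ratio of viability without drug over viability with camptothecin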. Reading the numbers: log2 vehicle/camptothecin viability: higher = stronger sensitisation to camptothecin; viability with camptothecin and viability without drug: higher = more viable cells. Active means: 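Each gene scored by redundant siRNA activity (RSA) over its individual siRNA ratios; a gene is called active at p < 0.001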.
The whole screen tested about 26,000 reagents; below is a random part of them. Over the whole deposit, 167 (0.63%) are marked active. 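Calls are per gene from RSA p-values that are not deposited; an individual active-marked siRNA can sensitise only weakly.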 Reagents against one gene are numbered here. Reagent sequences are not shown.

Target gene	reagent no.	log2 vehicle/camptothecin viability	viability with camptothecin (% of control)	viability without drug (% of control)	Outcome
PSMB2	1	-0.138	17.7	16.1	inactive
PSMB2	2	-0.657	28.8	18.3	inactive
PSMB2	3	0.275	4.84	5.86	inactive
PSMB2	4	0.023	62.9	63.9	inactive
GPR62	1	-0.189	87.1	76.4	inactive
GPR62	2	0.109	80	86.3	inactive
GPR62	3	-0.139	98.1	89.1	inactive
GPR62	4	-0.508	39.3	27.6	inactive
KCNH7	1	0.0349	84.4	86.5	inactive
KCNH7	2	0.822	10.3	18.2	inactive
KCNH7	3	-0.0376	100	97.9	inactive
KCNH7	4	0.254	36.6	43.6	inactive
SLC6A10P	1	-0.0916	47.4	44.5	inactive
SLC6A10P	2	-0.4	77.9	59	inactive
SLC6A10P	3	0.0925	94.6	101	inactive
SLC6A10P	4	0.0983	80.5	86.1	inactive
TPO	1	-0.402	136	103	inactive
TPO	2	-0.31	49.7	40.1	inactive
TPO	3	0.145	70.5	78	inactive
TPO	4	0.295	39.7	48.7	inactive
NHERF4	1	-0.0773	112	106	inactive
NHERF4	2	0.0512	55.9	57.9	inactive
NHERF4	3	0.237	17.6	20.8	inactive
CTRC	1	-0.446	31.4	23	inactive
CTRC	2	-0.178	108	95.6	inactive
CTRC	3	-0.154	79.6	71.5	inactive
CTRC	4	-0.376	27.2	21	inactive
OR12D2	1	-0.0789	105	99.2	inactive
OR12D2	2	-0.237	89.3	75.8	inactive
OR12D2	3	-0.179	84.3	74.4	inactive
OR12D2	4	-0.0399	64.7	62.9	inactive

Part of the list above in another layout:
| Target gene | reagent no. | log2 vehicle/camptothecin viability | viability with camptothecin (% of control) | viability without drug (% of control) | Outcome |
| --- | --- | --- | --- | --- | --- |
| OR12D2 | 1 | -0.0789 | 105 | 99.2 | inactive |
| OR12D2 | 2 | -0.237 | 89.3 | 75.8 | inactive |
